# In the supplement of paper PMC12889115:
# The list shows a part of the results. These are raw signals, not scaled to a control.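 In the initial screen, polymyxin B was used at a concentration that permeabilizes Salmonella's outer membrane but not its inner membrane. Maximum growth was set by DMSO wells with or without polymyxin B. Since plates varied, data were ranked per plate, and compounds giving the lowest OD600 advanced as hits.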
# System: Salmonella enterica serovar Typhimurium SL1344
# Assay: bacterial growth OD600 after 18 h with compound and polymyxin B; higher = more bacterial growth (less inhibition)
# Details: 50 µM, Mueller-Hinton broth
SMILES,bacterial growth OD600 (polymyxin B 1 µg/mL),bacterial growth OD600 (polymyxin B 0.75 µg/mL)
CCOC(=O)C1(Cc2ccc(F)cc2)CCCN(C(=O)CCc2cnn(C)c2)C1 (stereo not given),0.681,–
CCn1nc(C)c(CN(C)Cc2nc(-c3ccccc3NC(=O)c3ccsc3)oc2C)c1C,–,0.798
CC(=O)c1cc(C(=O)N2CCC(C3CCN(C)C3)CC2)[nH]n1 (stereo not given),–,0.819
COc1ccc(OCC(=O)NC(C)c2cnn(-c3ccccc3C)c2C)cc1 (stereo not given),0.887,–
CN(Cc1cccc(-n2cccn2)c1)C(=O)C1CCC(=O)N(C2CC2)C1 (stereo not given),0.836,–
O=C(NCC1CCCN(Cc2c[nH]nc2-c2ccccc2)C1)c1cccs1 (stereo not given),0.879,–
COc1ccc(-n2cc(CNCC(C)O)c(-c3ccccc3Cl)n2)cc1 (stereo not given),1.02,–
Cc1cccc(C(=O)N2CCC(C3CCN(Cc4cccnc4)CC3)C2)n1 (stereo not given),–,0.848
COc1cc(-c2n[nH]cc2CN2CCN(C3CCCCC3)CC2)cc(OC)c1OC,1.16,–
O[C@@H]1CN(CCCC(F)(F)F)CC[C@H]1N1CCN(c2ccccc2F)CC1,1.08,–
OC1CCN([C@@H]2CCN(Cc3ccc4c(c3)Cc3ccccc3-4)C[C@H]2O)CC1,0.91,–
COc1cccc(CCc2nnc(CCC(=O)N3CCCCC3C)o2)c1 (stereo not given),0.876,–
COCCNC(=O)c1ccc(OC)cc1OC1CCN(Cc2ccco2)CC1,0.815,–
COc1ccc(C(=O)NCc2ccccc2C)cc1OC1CCN(C(C)C)CC1,–,0.852
CSCC(=O)N1CCCCC1C(=O)Nc1ccc(-n2nc(C)cc2C)cc1 (stereo not given),0.908,–
Cc1ccc(C)c(-c2n[nH]cc2CN2C[C@H]3OC(=O)N(C4CCCC4)[C@H]3C2)c1,–,0.719
CCN(Cc1nc(C)c[nH]1)CC1CCN(CCc2ccccc2C)CC1,0.718,–
Cc1ccccc1C(CC(=O)NCC(N)=O)c1ccccc1 (stereo not given),–,0.8
CCCn1cc(C(=O)N2CCC3(CCCN(CC4CC4)C3)C2)c(C)n1 (stereo not given),0.965,–
COC(=O)CCC(=O)NC1CCCc2c1cnn2-c1cccc(C)c1C (stereo not given),0.922,–

# Record cards (already shown):
# CC(=O)c1cc(C(=O)N2CCC(C3CCN(C)C3)CC2)[nH]n1 (stereo not given) in the list: bacterial growth OD600 (polymyxin B 0.75 µg/mL): 0.819
# COc1cc(-c2n[nH]cc2CN2CCN(C3CCCCC3)CC2)cc(OC)c1OC in the list: bacterial growth OD600 (polymyxin B 1 µg/mL): 1.16
